Measurements from the supplement of paper PMC6119338.
The other results are listed elsewhere or left out. Single values are uncertain, as repeats are few or missing.

Test system: Plasmodium berghei sporozoites
Experiment: residual sporozoite gliding motility relative to DMSO control; higher = less inhibition of motility
Settings: 10 µM; incubation time 30 min
Method: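 GFP-expressing Plasmodium berghei salivary gland sporozoites (about 2000 per well, 384-well plate, RPMI with 3% BSA) were incubated 30 min with MMV Malaria Box compounds at 10 uM, then imaged at 1 Hz for 30 s. Sporozoites moving more than one parasite length were counted manually and expressed as percentage residual motility relative to DMSO controls. The pilot screen was a single assay per compound; apparent hits were repeated up to two more times. 'No observable inhibition' in the pilot screen is encoded as inactive (>50% residual, active false), a coarse placeholder rather than a measured value.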

| SMILES | residual sporozoite gliding motility [%] |
| --- | --- |
| O=C(CCc1ccco1)NC1CCN(CC2(c3ccc(Cl)cc3)CCC2)CC1 | > 50 |
| CN(N=O)C1=C(NC2CCCCC2)C(=O)c2ccccc2C1=O | > 50 |
| COc1ccc(CN2CCN(Cc3ccccc3)CC2)c(O)c1 | > 50 |
| CCOc1cc(CNC(C)C(O)c2ccccc2)cc(Cl)c1OCC (stereo unspecified) | > 50 |
| CCCc1cc(O)c2c3c(c(=O)oc2c1)CN(C)CC3 | > 50 |
| Oc1ccc(Br)cc1CN1CCN(Cc2cccc(F)c2)CC1 | > 50 |
| COc1cc(CNCCc2ccc(Cl)cc2)cc(OC)c1O | > 50 |
| CCOc1c(Cl)cc(CNC(C)C(O)c2ccccc2)cc1OC (stereo unspecified) | > 50 |
| CCCCCCc1cc(O)c2c3c(c(=O)oc2c1)CCC(C)C3 (stereo unspecified) | > 50 |
| Oc1ccc(C(=C(Cl)Cl)c2ccc(O)cc2)cc1 | > 50 |
| Oc1ccc(Br)cc1CN1CCN(Cc2ccc(Cl)cc2)CC1 | > 50 |
